Measurements reported in patent publication US7799334B2, “Pyrazolecarboxamides” (BASF Aktiengesellschaft, priority 2005, dated 2010).
Some entries share one result that the patent states for a list of compounds.

How the values were obtained:
Puccinia recondita = experiment: Protective activity against Puccinia recondita on wheat (brown rust of wheat); assay type: in vivo, Puccinia recondita on wheat seedlings cultivar Kanzler; details: wheat plants treated with 250 ml (so in the source) of compound, sprayed 1 day before inoculation; untreated plants 90% infected
Pyrenophora teres = experiment: Activity against net blotch of barley caused by Pyrenophora teres, 1 day protective application; assay type: in vivo, Pyrenophora [syn. Drechslera] teres on barley seedlings; details: barley plants treated with 250 ml (so in the source) of compound, sprayed 24 hours before inoculation; read after 6 days; untreated plants 90% infected

For `Cn1cc(C(=O)Nc2ccccc2-c2ccc(C(F)(F)F)cc2)c(C(F)F)n1` [I.1, N-(4′-Trifluoromethylbiphenyl-2-yl)-3-difluoromethyl-1-methyl-1H-pyrazole-4-carboxamide], the “infection (extent of rust fungus development on the leaves, determined visually)” value (Puccinia recondita) was “at most 7%” and the “infection (% infection of the entire leaf area, determined visually)” value (Pyrenophora teres) was “at most 7%”.

In the case of `Cn1cc(C(=O)Nc2ccccc2-c2cccc(C(F)(F)F)c2)c(C(F)F)n1` [I.2, N-(3′-trifluoromethylbiphenyl-2-yl)-3-difluoromethyl-1-methyl-1H-pyrazole-4-carboxamide], the “infection (extent of rust fungus development on the leaves, determined visually)” value (Puccinia recondita) is reported as “at most 7%” and the “infection (% infection of the entire leaf area, determined visually)” value (Pyrenophora teres) is reported as “at most 7%”.

With `Cn1cc(C(=O)Nc2ccccc2-c2ccccc2C(F)(F)F)c(C(F)F)n1` [I.3, N-(2′-trifluoromethylbiphenyl-2-yl)-3-difluoromethyl-1-methyl-1H-pyrazole-4-carboxamide] the “infection (extent of rust fungus development on the leaves, determined visually)” value (Puccinia recondita) was “at most 7%” and the “infection (% infection of the entire leaf area, determined visually)” value (Pyrenophora teres) was “at most 7%”.
